# In US20040096941A1 (priority 2002, published 2004):
# Assay: peptide synthesis
# Conditions: late stage modification step
substance,measurement,value
Fmoc-Tyr(SO3H)-Ile-Tyr(SO3H)-Thr-Lys(^εN-(Ahx)2),step yield,70%
